# Experimental data reported in US20120135002A1, “Compounds and Methods for the Treatment of Cancer” (priority 2009, published 2012).
# For at least one compound, name, drawing or mass did not settle the structure.
# Assays:
# [1] = tested on: AML cells lines; assay: CD14 and CD11b monocytic marker expression in AML cell lines; assay type: cell-based
# Description: Peripheral blood cells from AML patients and healthy donors was analyzed after obtaining their written informed consent (please refer to supplementary table 2 for additional information). Peripheral blood was collected at the initial diagnosis previously to treatment administration. Mononuclear cells were separated by Ficoll-hypaque (PAA laboratories) density centrifugation and resuspended in IMDM medium (Invitrogen) supplemented with 15% fetal calf serum (FCS) (Hyclone), 100 ng/ml Stem Cell Factor (SCF), 10 ng/ml Interleukin 3 (IL-3) and 25 ng/ml FLT3-L (all purchased from R&D Systems). HL60 and U937 cell lines were a kind gift from J. M. Cayuela (Saint-Louis Hospital, Paris). Cells were cultured in RPMI-1640 medium (Invitrogen) supplemented with 5% FCS and antibiotics.
# The ability of iron deprivation to override blockade of AML cells differentiation was tested. In AML cells lines, monocytic markers CD14 and CD11b (which are induced by the vitamin D3 (VD), a monocytic differentiating agent) were induced by iron deprivation by A24 mAb, DFO and DFX. Induction of cell surface markers was accompanied by characteristic cytological modifications of monocytes. Iron deprivation induced cytoplasm enlargement, loss of cytoplasm basophilia and azurophilic granules. […]
# [2] = tested on: AML patients' blasts; assay: CD14 and CD11b expression in fresh AML patients' blasts; assay type: cell-based, human; details: fresh blasts of different AML subtypes, 72 h
# [3] = tested on: HL60 cells; assay: MAPK inhibitors on differentiation and apoptosis induced by iron deprivation in HL60 cells; assay type: cell-based; details: iron deprivation with A24 or DFO
compound,measurement,setting,value
CC(=O)N(O)CCCCCNC(=O)CCC(=O)N(O)CCCCCNC(=O)CCC(=O)N(O)CCCCCN [DFO],monocytic markers CD14 and CD11b,[1],induced
same,CD14 and CD11b markers expression,[2],consistently up-regulated
Oc1c2ccccc2c2c3c(cccc13)N=N2 [SP600125],differentiation induced by iron deprivation,[3],abrogated
